Measurements reported in PubChem BioAssay AID504764 (Drosophila RNAi Screening Center, 2011).

Aim: 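Genes whose knock-down alters Notch-dependent transcription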 (primary screen)
System: Drosophila Kc167 cells
Reagent: long dsRNA against Drosophila genes
Duration: about 5 days (4 days dsRNA, then 24 h after transfection)
Treatment: transfection of constitutively active membrane-tethered Notch lacking the extracellular domain, read 24 h later
Measurement: 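Firefly luciferase from an E(spl)m3 reporter with active Notch, plus control-promoter and uninduced reporter wells for normalisation; unnormalised counts, duplicate wells a and b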
Scale: induced reporter light, run 1, well a and induced reporter light, run 1, well b: higher = more light from the Notch target reporter with active Notch; control promoter light, run 1, well a and control promoter light, run 1, well b: higher = more light from the viral control promoter (cell number, transfection, viability); uninduced reporter light, run 1, well a: higher = more light from the Notch target reporter without active Notch
Active means: 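Hit if the duplicate-averaged log2 ratio of induced to control-promoter light gives a plate-wise z beyond ±2, or induced to uninduced beyond ±1.8; weak-control or discordant-duplicate wells dropped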
Meaning of the calls: active = modifier hit (raised or lowered Notch signal); inactive = not a hit
In all, the deposit lists about 22,000 reagents; below is an unselected part of those with a known target gene and a result. Over the whole deposit, 403 (1.9%) were called active. 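Unnormalised raw counts per well; ratio z-scores behind the hit calls and whether each hit raises or lowers signal are not deposited.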 A plus sign joins genes that one reagent is predicted to hit. No sequences are given here. Not stated in the record: the amount of reagent.

no.	target gene	dsRNA	induced reporter light, run 1, well a	induced reporter light, run 1, well b	control promoter light, run 1, well a	control promoter light, run 1, well b	uninduced reporter light, run 1, well a	call
1	osi (orsai)	DRSC02931	1.17e5	1.57e5	1.90e5	2.26e5	12820	active
2	Als2 (Amyotrophic lateral sclerosis 2)	DRSC11806	1.22e5	1.29e5	83925	1.18e5	10528	inactive
3	Cyp4g1 (Cytochrome P450 4g1)	DRSC18459	65370	69370	85115	93395	5710	inactive
4	Cda5 (Chitin deacetylase-like 5)	DRSC00003	1.32e5	1.18e5	1.36e5	1.53e5	9360	inactive
5	Cda5 (Chitin deacetylase-like 5)	DRSC00529	1.28e5	1.16e5	1.10e5	75740	10000	inactive
6	Cda5 (Chitin deacetylase-like 5)	DRSC00532	1.20e5	97945	1.01e5	69635	8530	inactive
7	Arpc3A (Actin-related protein 2/3 complex, subunit 3A)	DRSC15596	1.93e5	2.16e5	1.82e5	1.80e5	13360	inactive
8	CG17732	DRSC10283	1.38e5	1.43e5	93110	1.14e5	6930	inactive
9	CG8677 + CG31626	DRSC01838	1.09e5	1.14e5	87705	1.17e5	9375	inactive
10	CG5762	DRSC15869	1.34e5	1.21e5	1.27e5	1.29e5	13155	inactive
11	Mbs (Myosin binding subunit)	DRSC09414	2.66e5	1.86e5	3.75e5	3.06e5	18050	inactive
12	Mbs (Myosin binding subunit)	DRSC10525	1.02e5	1.61e5	76810	89520	11000	inactive
13	Mbs (Myosin binding subunit)	DRSC10553	2.52e5	2.08e5	2.80e5	3.06e5	11535	inactive
14	fd102C (forkhead domain 102C)	DRSC17203	1.07e5	1.12e5	1.90e5	1.94e5	8835	inactive
15	Yp1 (Yolk protein 1)	DRSC18731	1.28e5	1.55e5	3.11e5	2.80e5	9995	inactive
16	CG12723	DRSC19499	1.52e5	1.43e5	1.99e5	1.89e5	9545	inactive
17	CG13056	DRSC09937	1.84e5	1.83e5	2.30e5	1.67e5	7330	inactive
18	CG32053	DRSC10683	75495	88040	68565	28005	9510	inactive
19	LysRS (Lysyl-tRNA synthetase)	DRSC17824	20478	20115	29505	26650	1580	inactive
20	Gr64d + Gr64e	DRSC08446	1.34e5	1.26e5	1.64e5	1.48e5	10215	active

5 entries from above, reformatted.
target gene	dsRNA	induced reporter light, run 1, well a	induced reporter light, run 1, well b	control promoter light, run 1, well a	control promoter light, run 1, well b	uninduced reporter light, run 1, well a	call
Mbs (Myosin binding subunit)	DRSC09414	2.66e5	1.86e5	3.75e5	3.06e5	18050	inactive
Mbs (Myosin binding subunit)	DRSC10525	1.02e5	1.61e5	76810	89520	11000	inactive
Mbs (Myosin binding subunit)	DRSC10553	2.52e5	2.08e5	2.80e5	3.06e5	11535	inactive
fd102C (forkhead domain 102C)	DRSC17203	1.07e5	1.12e5	1.90e5	1.94e5	8835	inactive
Yp1 (Yolk protein 1)	DRSC18731	1.28e5	1.55e5	3.11e5	2.80e5	9995	inactive

Continued.
no.	target gene	dsRNA	induced reporter light, run 1, well a	induced reporter light, run 1, well b	control promoter light, run 1, well a	control promoter light, run 1, well b	uninduced reporter light, run 1, well a	call
21	CG13898	DRSC08368	1.21e5	1.10e5	2.45e5	2.27e5	7965	inactive
22	wek (weckle)	DRSC03561	2.09e5	2.09e5	1.94e5	1.92e5	15785	inactive
23	PlexA (Plexin A)	DRSC17220	1.68e5	1.57e5	2.05e5	2.20e5	10450	inactive
24	CG8726	DRSC07250	1.68e5	1.46e5	1.57e5	1.34e5	15395	inactive
25	Plod (procollagen lysyl hydroxylase)	DRSC10601	1.10e5	1.04e5	72700	34965	10938	inactive
26	Plod (procollagen lysyl hydroxylase)	DRSC10602	2.31e5	1.79e5	3.85e5	3.08e5	12215	inactive
27	clumsy	DRSC03111	62500	50510	52235	68930	3015	inactive
28	Ugt36D1 (UDP-glycosyltransferase family 36 member D1)	DRSC02600	2.11e5	2.01e5	1.68e5	2.24e5	16042	inactive
29	CG42296	DRSC00394	1.23e5	1.20e5	1.19e5	64340	9045	inactive
30	CG10651	DRSC02086	79205	40920	44750	76585	2610	inactive
31	CG13138	DRSC02235	1.03e5	1.25e5	65455	90385	15315	inactive
32	CG11123	DRSC06040	1.91e5	1.81e5	2.27e5	1.97e5	16065	inactive
33	CG2121	DRSC06819	1.93e5	1.87e5	1.74e5	1.56e5	14938	inactive
34	CG2121	DRSC06820	2.09e5	1.81e5	2.35e5	2.39e5	16770	inactive
